Measurements from patent publication US20030199671A1, “Binding molecules for Fc-region polypeptides” (priority 2001, published 2003).

Target: Human IgG Fc fragment isolated from plasma (human)
Experiment: column capture from tobacco extract

GDRRACSRDWSGALVWCAGHEPGPEGGGK (N-terminal acetylation; C-terminal amidation) [DX253]
binding: binds

These are yes or no findings as the source states them, for the method shown. Binding calls can cover weak binding; strength is not graded here.
